Assay results taken from US10603273B2, “Membrane-adherent self-assembled systems for treatment of ocular disorders” (Integral Biosystems LLC, priority 2014, dated 2020).
At least one compound was matched to its structure with a doubt left.

Legend:
Type in all cases: physicochemical
[1] = Solubility of API in Phase I excipient mixtures; conditions: in 10 g of Phase I: 30% PEG-400, 60% PPG, 5% MCT, 0.25% cetyl alcohol, 4.75% ethanol; 1280 rpm, 45° C.
Procedure: Solubility of APIs were examined in different Phase I mixtures.
Initially, the solubility of fluticasone propionate was determined in 10 g of Phase I composed of a 7:3 (w/w) mixture of PHOSAL™ Medium Chain Triglycerides (“MCT”) and polyethylene glycol-400 (PEG-400). MCT, a mixture of phosphatidylcholine and medium chain triglycerides, is the hydrophobic component and PEG-400 is the hydrophilic component in this exemplary Phase I. MCT and PEG-400 were added into a glass vial and the mixture was vortexed for 2 min until the components formed a homogeneous mixture. Fluticasone propionate was added in an incremental manner and stirred at 850 rpm using a Scilogex MSH 280 Pro hot stir plate at a temperature of 37° C. Stirring was continued until saturation solubility was reached.
In order to increase the solubility of the fluticasone propionate in Phase I, mineral oil (Drakeol 600LT) was added into the composition. A Phase I containing MCT: PEG-400: mineral oil weight ratio of 7:2:1 was prepared as described above. The total amount of Phase I was 10 g. Fluticasone propionate was added in an incremental manner and the mixture was stirred for 5 min. and vortexed for 5 min after each addition of fluticasone propionate into the mixture. […]
Another Phase I mixture containing PEG-400, polypropylene glycol (PPG), and cremophor in a weight ratio 2.9:7:0.1 was also evaluated. […]

[2] = Particle size distribution (Horiba particle size analyzer); conditions: nanodispersion of the named drug, drug delivery platform of Example 1
Procedure: Particle sizing was carried out by adding approximately 20 μL of the Phase III dispersion in a solution of 2% w/w glycerin, 0.1% w/w sodium pyrophosphate decahydrate. Particle size distribution of the Phase III nano-dispersions were measured using a Horiba LA-950V2 particle size analyzer at room temperature, i.e., 22-25° C.

[3] = Encapsulation efficiency (centrifugation, HPLC); conditions: 0.1% nanostructured dispersion (Phase III); mg drug per g dispersion
Procedure: Encapsulation efficiency (mg/G) was measured by placing 1.0 g of drug-containing Phase III into a 1.5 mL centrifuge tube and centrifuging it at 6000 rpm for 10 minutes using an Eppendorf Centrifuge 5145D at room temperature. 100 μL of the centrifugate was transferred to an HPLC vial containing 900 μL of 75% acetonitrile/25% water. The samples were measured for concentration of drug, e.g., dexamethasone, by HPLC at λmax=239 nm. The concentration was calculated as mg drug per g of the Phase III dispersion.

For `CC1(C)O[C@@H]2C[C@H]3[C@@H]4CCC5=CC(=O)C=C[C@]5(C)[C@@]4(F)[C@@H](O)C[C@]3(C)[C@]2(C(=O)CO)O1` [triamcinolone acetonide], the “amount dissolved in Phase I” value [1] was 220 mg, the D50 [2] was 0.134 μm and the D90 [2] was 0.197 μm.
In the case of `C[C@@H]1C[C@H]2[C@@H]3CCC4=CC(=O)C=C[C@]4(C)[C@@]3(F)[C@@H](O)C[C@]2(C)[C@@]1(O)C(=O)CO` [dexamethasone], the “amount of drug encapsulated” value [3] is reported as 0.845 mg/G, the D50 [2] is reported as 0.139 μm and the D90 [2] is reported as 0.170 μm.
